Results taken from article PMC12153122.
Where a chain is given by its changes, count along the chain named. In names and notes the source's numbering stands. No constants are given. Whether binding was seen depends on the method and setting. Binding seen in cells or lysates may run through a third protein. Some entries that bind do so weakly or less than the wild type. Tags and fused reporters may be left off the sequences shown.

By UniProt entry, the sequences of proteins in these tests, tags left out.
UniProt Q86U44: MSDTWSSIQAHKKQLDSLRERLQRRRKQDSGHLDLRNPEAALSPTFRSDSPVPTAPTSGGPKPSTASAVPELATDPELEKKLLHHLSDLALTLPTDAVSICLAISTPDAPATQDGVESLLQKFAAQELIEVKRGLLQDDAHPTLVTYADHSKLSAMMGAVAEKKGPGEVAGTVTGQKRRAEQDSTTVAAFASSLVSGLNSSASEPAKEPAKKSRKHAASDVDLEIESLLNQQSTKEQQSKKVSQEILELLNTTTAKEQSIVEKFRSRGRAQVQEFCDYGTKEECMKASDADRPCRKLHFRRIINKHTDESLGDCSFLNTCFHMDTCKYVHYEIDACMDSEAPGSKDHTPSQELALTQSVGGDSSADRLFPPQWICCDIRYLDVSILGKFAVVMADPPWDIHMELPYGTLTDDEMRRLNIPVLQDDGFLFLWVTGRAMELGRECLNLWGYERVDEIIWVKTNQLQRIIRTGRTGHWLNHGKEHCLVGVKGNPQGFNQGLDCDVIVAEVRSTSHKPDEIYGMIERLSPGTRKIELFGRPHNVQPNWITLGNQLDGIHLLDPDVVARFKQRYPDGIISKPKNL

Target: Flag-METTL3 (UniProt Q86U44)
Experiment: co-IP; HEK293T cells transfected with Flag-METTL3 and HA-OGT, HA-OGT-K908A or truncated HA-OGT; lysates immunoprecipitated with anti-Flag antibody; Western blot with anti-HA and anti-Flag

B1: HA-OGT (enzyme, UniProt O15294 1-1046)
chain: MASSVGNVADSTEPTKRMLSFQGLAELAHREYQAGDFEAAERHCMQLWRQEPDNTGVLLLLSSIHFQCRRLDRSAHFSTLAIKQNPLLAEAYSNLGNVYKERGQLQEAIEHYRHALRLKPDFIDGYINLAAALVAAGDMEGAVQAYVSALQYNPDLYCVRSDLGNLLKALGRLEEAKACYLKAIETQPNFAVAWSNLGCVFNAQGEIWLAIHHFEKAVTLDPNFLDAYINLGNVLKEARIFDRAVAAYLRALSLSPNHAVVHGNLACVYYEQGLIDLAIDTYRRAIELQPHFPDAYCNLANALKEKGSVAEAEDCYNTALRLCPTHADSLNNLANIKREQGNIEEAVRLYRKALEVFPEFAAAHSNLASVLQQQGKLQEALMHYKEAIRISPTFADAYSNMGNTLKEMQDVQGALQCYTRAIQINPAFADAHSNLASIHKDSGNIPEAIASYRTALKLKPDFPDAYCNLAHCLQIVCDWTDYDERMKKLVSIVADQLEKNRLPSVHPHHSMLYPLSHGFRKAIAERHGNLCLDKINVLHKPPYEHPKDLKLSDGRLRVGYVSSDFGNHPTSHLMQSIPGMHNPDKFEVFCYALSPDDGTNFRVKVMAEANHFIDLSQIPCNGKAADRIHQDGIHILVNMNGYTKGARNELFALRPAPIQAMWLGYPGTSGALFMDYIITDQETSPAEVAEQYSEKLAYMPHTFFIGDHANMFPHLKKKAVIDFKSNGHIYDNRIVLNGIDLKAFLDSLPDVKIVKMKCPDGGDNADSSNTALNMPVIPMNTIAEAVIEMINRGQIQITINGFSISNGLATTQINNKAATGEEVPRTIIVTTRSQYGLPEDAIVYCNFNQLYKIDPSTLQMWANILKRVPNSVLWLLRFPAVGEPNIQQYAQNMGLPQNRIIFSPVAPKEEHVRRGQLADVCLDTPLCNGHTTGMDVLWAGTPMVTMPGETLASRVAASQLTCLGCLELIAKNRQEYEDIAVKLGTDLEYLKKVRGKVWKQRISSPLFNTKQYTMELERLYLQMWEHYAAGNKPDHMIKPVEVTESA
binding: binds

B2: HA-OGT-K908A (enzyme, UniProt O15294 1-1046)
chain: B1 chain with K908A
binding: binds
